Article doi:10.1101/2025.11.22.689938 (bioRxiv, 2025)
No constants are given. Whether binding was seen depends on the method and setting. For some of these results: In cells and extracts the contact can be indirect. Some results given as binding are weak or reduced against the parent protein; the word gives no strength. For some of these results: Tags and fused reporters may be left off the sequences shown. Each block holds one binder with its values, some of them ahead of it.

Protein sequences, listed by entry. Tags and fused reporters are not part of them. Lines headed by an entry give the natural chain unless they say otherwise; changes in a name come on top.
UniProt Q8N371, whole entry: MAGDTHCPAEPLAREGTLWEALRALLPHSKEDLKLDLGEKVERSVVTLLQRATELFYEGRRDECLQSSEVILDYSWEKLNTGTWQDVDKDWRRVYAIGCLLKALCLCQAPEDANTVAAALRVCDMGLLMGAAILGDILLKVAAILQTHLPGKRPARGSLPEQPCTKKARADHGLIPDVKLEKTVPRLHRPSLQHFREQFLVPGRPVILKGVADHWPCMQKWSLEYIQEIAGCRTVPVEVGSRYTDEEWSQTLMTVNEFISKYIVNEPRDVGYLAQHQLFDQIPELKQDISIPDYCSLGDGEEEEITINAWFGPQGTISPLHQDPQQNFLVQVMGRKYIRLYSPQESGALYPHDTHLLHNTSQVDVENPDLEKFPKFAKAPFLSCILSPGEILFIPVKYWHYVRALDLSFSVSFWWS

What was measured:
[1] = target: HA-JMJD5 D73A (pEF6) (human) (UniProt Q8N371); test: co-IP
[2] = target: HA-JMJD5 D73A/E77A (pEF6) (human) (UniProt Q8N371); test: co-IP
[3] = target: HA-JMJD5 E77A (pEF6) (human) (UniProt Q8N371); test: co-IP
[4] = target: HA-JMJD5 (wildtype, pEF6) (human, UniProt Q8N371 1-416); test: co-IP
[5] = target: T1, HA-JMJD5:RCCD1-3XFLAG complex (human) (UniProt Q8N371+A6NED2); test: co-IP
[6] = target: T1, HA-JMJD5:RCCD1-3XFLAG complex (human); test: pull-down

B2: RAD51B (protein, UniProt O15315 1-384)
chain: MGSKKLKRVGLSQELCDRLSRHQILTCQDFLCLSPLELMKVTGLSYRGVHELLCMVSRACAPKMQTAYGIKAQRSADFSPAFLSTTLSALDEALHGGVACGSLTEITGPPGCGKTQFCIMMSILATLPTNMGGLEGAVVYIDTESAFSAERLVEIAESRFPRYFNTEEKLLLTSSKVHLYRELTCDEVLQRIESLEEEIISKGIKLVILDSVASVVRKEFDAQLQGNLKERNKFLAREASSLKYLAEEFSIPVILTNQITTHLSGALASQADLVSPADDLSLSEGTSGSSCVIAALGNTWSHSVNTRLILQYLDSERRQILIAKSPLAPFTSFVYTIKEEGLVLQETTFCSVTQAELNWAPEILPPQPPEQLGLQMCHHTQLIF
binding [5]: no binding

B3: CX3 complex (RAD51C:XRCC3), endogenous (complex, UniProt O43502;O43542)
chain 1: MRGKTFRFEMQRDLVSFPLSPAVRVKLVSAGFQTAEELLEVKPSELSKEVGISKAEALETLQIIRRECLTNKPRYAGTSESHKKCTALELLEQEHTQGFIITFCSALDDILGGGVPLMKTTEICGAPGVGKTQLCMQLAVDVQIPECFGGVAGEAVFIDTEGSFMVDRVVDLATACIQHLQLIAEKHKGEEHRKALEDFTLDNILSHIYYFRCRDYTELLAQVYLLPDFLSEHSKVRLVIVDGIAFPFRHDLDDLSLRTRLLNGLAQQMISLANNHRLAVILTNQMTTKIDRNQALLVPALGESWGHAATIRLIFHWDRKQRLATLYKSPSQKECTVLFQIKPQGFRDTVVTSACSLQTEGSLSTRKRSRDPEEEL
chain 2: MDLDLLDLNPRIIAAIKKAKLKSVKEVLHFSGPDLKRLTNLSSPEVWHLLRTASLHLRGSSILTALQLHQQKERFPTQHQRLSLGCPVLDALLRGGLPLDGITELAGRSSAGKTQLALQLCLAVQFPRQHGGLEAGAVYICTEDAFPHKRLQQLMAQQPRLRTDVPGELLQKLRFGSQIFIEHVADVDTLLECVNKKVPVLLSRGMARLVVIDSVAAPFRCEFDSQASAPRARHLQSLGATLRELSSAFQSPVLCINQVTEAMEEQGAAHGPLGFWDERVSPALGITWANQLLVRLLADRLREEEAALGCPARTLRVLSAPHLPPSSCSYTISAEGVRGTPGTQSH
binding [5]: binds

Now from value to binder:

binding [1]: binds | binding [2]: no binding | binding [3]: binds | binding [4]: binds
B1: RCCD1-FLAG (wildtype, pIHZ) (natural protein)
chain: MAEERPGAWFGFGFCGFGQELGSGRGRQVHSPSPLRAGVDICRVSASWSYTAFVTRGGRLELSGSASGAAGRCKDAWASEGLLAVLRAGPGPEALLQVWAAESALRGEPLWAQNVVPEAEGEDDPAGEAQAGRLPLLPCARAYVSPRAPFYRPLAPELRARQLELGAEHALLLDAAGQVFSWGGGRHGQLGHGTLEAELEPRLLEALQGLVMAEVAAGGWHSVCVSETGDIYIWGWNESGQLALPTRNLAEDGETVAREATELNEDGSQVKRTGGAEDGAPAPFIAVQPFPALLDLPMGSDAVKASCGSRHTAVVTRTGELYTWGWGKYGQLGHEDTTSLDRPRRVEYFVDKQLQVKAVTCGPWNTYVYAVEKGKS

binding [6]: binds
B4: recombinant CX3 complex (complex, UniProt O43502;O43542)
chain 1: MRGKTFRFEMQRDLVSFPLSPAVRVKLVSAGFQTAEELLEVKPSELSKEVGISKAEALETLQIIRRECLTNKPRYAGTSESHKKCTALELLEQEHTQGFIITFCSALDDILGGGVPLMKTTEICGAPGVGKTQLCMQLAVDVQIPECFGGVAGEAVFIDTEGSFMVDRVVDLATACIQHLQLIAEKHKGEEHRKALEDFTLDNILSHIYYFRCRDYTELLAQVYLLPDFLSEHSKVRLVIVDGIAFPFRHDLDDLSLRTRLLNGLAQQMISLANNHRLAVILTNQMTTKIDRNQALLVPALGESWGHAATIRLIFHWDRKQRLATLYKSPSQKECTVLFQIKPQGFRDTVVTSACSLQTEGSLSTRKRSRDPEEEL
chain 2: MDLDLLDLNPRIIAAIKKAKLKSVKEVLHFSGPDLKRLTNLSSPEVWHLLRTASLHLRGSSILTALQLHQQKERFPTQHQRLSLGCPVLDALLRGGLPLDGITELAGRSSAGKTQLALQLCLAVQFPRQHGGLEAGAVYICTEDAFPHKRLQQLMAQQPRLRTDVPGELLQKLRFGSQIFIEHVADVDTLLECVNKKVPVLLSRGMARLVVIDSVAAPFRCEFDSQASAPRARHLQSLGATLRELSSAFQSPVLCINQVTEAMEEQGAAHGPLGFWDERVSPALGITWANQLLVRLLADRLREEEAALGCPARTLRVLSAPHLPPSSCSYTISAEGVRGTPGTQSH
